The other results are listed elsewhere or left out. Small differences around the control level are noise.
The targets below were run with CN[C@@H]1C[C@H]2O[C@@](C)([C@@H]1OC)n1c3ccccc3c3c4c(c5c6ccccc6n2c5c31)C(=O)NC4 [staurosporine] (assay: log2 fold change of tryptic peptide abundance, ligand vs vehicle (limited proteolysis) (log2 ratio); higher = more trypsin-susceptible (destabilized)). Conditions: ligand concentration: 20 uM; sample: mouse liver crude lysate; replicate design: treated separately.

Chains of the proteins cited; added tags and fusions are not shown. Lines headed by an entry give the natural chain unless they say otherwise; changes in a name come on top.
UniProt Q8K2Y9: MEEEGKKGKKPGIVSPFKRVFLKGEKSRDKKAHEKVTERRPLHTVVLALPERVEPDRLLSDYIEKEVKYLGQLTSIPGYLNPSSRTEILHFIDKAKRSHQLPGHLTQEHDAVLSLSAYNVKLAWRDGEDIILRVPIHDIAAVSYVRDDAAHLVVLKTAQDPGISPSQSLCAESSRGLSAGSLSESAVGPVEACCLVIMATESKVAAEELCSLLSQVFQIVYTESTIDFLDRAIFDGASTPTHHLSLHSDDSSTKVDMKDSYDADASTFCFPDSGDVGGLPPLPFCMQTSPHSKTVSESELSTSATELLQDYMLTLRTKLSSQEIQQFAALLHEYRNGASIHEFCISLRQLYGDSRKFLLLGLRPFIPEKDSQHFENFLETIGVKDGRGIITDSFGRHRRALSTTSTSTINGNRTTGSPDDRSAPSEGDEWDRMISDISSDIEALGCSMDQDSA
UniProt Q8R015: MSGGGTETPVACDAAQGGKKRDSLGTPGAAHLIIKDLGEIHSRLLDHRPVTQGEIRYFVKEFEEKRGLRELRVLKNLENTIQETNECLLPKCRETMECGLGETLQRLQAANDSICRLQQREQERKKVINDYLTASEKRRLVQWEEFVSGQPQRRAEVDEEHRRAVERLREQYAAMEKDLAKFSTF
UniProt Q8K1B8, whole entry: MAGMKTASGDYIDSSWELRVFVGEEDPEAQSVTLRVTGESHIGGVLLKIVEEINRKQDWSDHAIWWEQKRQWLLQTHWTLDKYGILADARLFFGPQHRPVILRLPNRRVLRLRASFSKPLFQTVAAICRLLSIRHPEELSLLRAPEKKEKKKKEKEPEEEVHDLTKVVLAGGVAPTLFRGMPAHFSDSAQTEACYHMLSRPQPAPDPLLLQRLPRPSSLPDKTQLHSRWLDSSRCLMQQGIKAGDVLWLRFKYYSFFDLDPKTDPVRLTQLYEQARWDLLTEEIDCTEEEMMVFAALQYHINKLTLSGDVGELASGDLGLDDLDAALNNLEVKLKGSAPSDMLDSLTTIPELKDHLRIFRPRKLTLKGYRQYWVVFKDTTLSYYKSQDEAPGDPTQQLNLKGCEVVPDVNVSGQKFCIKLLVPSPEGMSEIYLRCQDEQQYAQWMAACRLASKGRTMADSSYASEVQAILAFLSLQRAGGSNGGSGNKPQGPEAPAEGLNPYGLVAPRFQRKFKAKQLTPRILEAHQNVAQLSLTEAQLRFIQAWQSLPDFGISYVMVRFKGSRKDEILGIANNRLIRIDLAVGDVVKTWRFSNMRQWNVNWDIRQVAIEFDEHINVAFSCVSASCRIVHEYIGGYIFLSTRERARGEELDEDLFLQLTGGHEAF
UniProt Q8R2K7: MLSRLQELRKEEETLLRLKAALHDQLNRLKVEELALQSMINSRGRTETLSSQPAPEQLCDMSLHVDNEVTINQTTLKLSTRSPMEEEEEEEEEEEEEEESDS
UniProt Q8K2Z2: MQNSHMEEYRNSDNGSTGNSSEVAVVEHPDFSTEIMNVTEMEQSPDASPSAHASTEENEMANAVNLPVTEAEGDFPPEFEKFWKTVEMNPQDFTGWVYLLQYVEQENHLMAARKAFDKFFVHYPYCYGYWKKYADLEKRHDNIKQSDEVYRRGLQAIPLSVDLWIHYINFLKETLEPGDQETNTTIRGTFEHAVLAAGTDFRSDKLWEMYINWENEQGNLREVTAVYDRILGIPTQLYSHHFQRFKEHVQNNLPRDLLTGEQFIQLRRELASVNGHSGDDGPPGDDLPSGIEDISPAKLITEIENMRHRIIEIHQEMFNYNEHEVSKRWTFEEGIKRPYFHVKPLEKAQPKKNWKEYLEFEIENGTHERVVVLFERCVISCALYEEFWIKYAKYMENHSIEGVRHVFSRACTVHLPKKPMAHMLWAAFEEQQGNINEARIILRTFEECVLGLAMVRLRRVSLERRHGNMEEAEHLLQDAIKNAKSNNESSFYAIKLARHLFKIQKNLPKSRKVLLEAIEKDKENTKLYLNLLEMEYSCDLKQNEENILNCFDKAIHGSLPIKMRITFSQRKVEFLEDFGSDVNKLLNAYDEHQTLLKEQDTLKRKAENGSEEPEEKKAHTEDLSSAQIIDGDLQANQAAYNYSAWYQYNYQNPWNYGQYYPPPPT
UniProt Q8K202, whole entry: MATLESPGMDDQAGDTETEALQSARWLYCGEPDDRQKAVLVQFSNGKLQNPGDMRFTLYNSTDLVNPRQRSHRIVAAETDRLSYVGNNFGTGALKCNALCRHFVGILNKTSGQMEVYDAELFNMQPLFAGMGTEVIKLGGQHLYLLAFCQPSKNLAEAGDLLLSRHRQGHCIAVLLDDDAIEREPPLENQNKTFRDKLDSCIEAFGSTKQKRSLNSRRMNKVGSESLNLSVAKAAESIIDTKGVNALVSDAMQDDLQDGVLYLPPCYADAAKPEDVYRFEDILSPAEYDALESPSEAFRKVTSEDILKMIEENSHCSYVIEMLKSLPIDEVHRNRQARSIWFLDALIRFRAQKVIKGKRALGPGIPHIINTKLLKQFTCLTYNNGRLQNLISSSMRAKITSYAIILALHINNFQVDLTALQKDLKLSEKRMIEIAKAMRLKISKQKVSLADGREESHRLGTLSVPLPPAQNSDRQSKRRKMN
UniProt Q8R079: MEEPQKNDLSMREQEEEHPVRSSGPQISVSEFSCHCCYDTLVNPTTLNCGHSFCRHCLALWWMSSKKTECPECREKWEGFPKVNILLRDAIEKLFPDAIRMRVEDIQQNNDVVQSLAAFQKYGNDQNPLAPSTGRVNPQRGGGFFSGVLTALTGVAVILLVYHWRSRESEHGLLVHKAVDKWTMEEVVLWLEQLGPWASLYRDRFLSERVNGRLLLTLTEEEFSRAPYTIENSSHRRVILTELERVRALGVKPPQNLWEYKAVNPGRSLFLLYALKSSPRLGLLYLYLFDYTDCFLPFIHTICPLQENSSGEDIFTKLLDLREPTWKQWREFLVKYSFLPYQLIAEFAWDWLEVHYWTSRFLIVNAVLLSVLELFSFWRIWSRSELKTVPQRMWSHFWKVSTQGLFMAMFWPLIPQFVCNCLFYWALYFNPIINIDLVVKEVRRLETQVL
UniProt Q8K3H0: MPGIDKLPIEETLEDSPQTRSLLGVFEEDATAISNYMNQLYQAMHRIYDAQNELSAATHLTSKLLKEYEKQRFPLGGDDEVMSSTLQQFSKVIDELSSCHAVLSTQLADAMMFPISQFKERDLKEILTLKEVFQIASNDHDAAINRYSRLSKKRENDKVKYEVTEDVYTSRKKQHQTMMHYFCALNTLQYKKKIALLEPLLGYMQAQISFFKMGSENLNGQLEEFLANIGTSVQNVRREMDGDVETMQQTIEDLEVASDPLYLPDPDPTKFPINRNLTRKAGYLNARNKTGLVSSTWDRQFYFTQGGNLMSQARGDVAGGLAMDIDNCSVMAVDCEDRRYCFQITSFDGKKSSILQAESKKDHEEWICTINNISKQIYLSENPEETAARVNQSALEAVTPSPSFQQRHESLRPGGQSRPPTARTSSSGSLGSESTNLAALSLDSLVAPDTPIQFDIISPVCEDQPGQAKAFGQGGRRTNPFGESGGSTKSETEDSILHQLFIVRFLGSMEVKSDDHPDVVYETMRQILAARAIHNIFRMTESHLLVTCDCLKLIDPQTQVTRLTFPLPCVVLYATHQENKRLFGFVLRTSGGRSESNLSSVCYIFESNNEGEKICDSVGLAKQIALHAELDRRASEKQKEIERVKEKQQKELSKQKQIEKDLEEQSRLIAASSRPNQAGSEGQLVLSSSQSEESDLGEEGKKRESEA
UniProt Q8R0J1: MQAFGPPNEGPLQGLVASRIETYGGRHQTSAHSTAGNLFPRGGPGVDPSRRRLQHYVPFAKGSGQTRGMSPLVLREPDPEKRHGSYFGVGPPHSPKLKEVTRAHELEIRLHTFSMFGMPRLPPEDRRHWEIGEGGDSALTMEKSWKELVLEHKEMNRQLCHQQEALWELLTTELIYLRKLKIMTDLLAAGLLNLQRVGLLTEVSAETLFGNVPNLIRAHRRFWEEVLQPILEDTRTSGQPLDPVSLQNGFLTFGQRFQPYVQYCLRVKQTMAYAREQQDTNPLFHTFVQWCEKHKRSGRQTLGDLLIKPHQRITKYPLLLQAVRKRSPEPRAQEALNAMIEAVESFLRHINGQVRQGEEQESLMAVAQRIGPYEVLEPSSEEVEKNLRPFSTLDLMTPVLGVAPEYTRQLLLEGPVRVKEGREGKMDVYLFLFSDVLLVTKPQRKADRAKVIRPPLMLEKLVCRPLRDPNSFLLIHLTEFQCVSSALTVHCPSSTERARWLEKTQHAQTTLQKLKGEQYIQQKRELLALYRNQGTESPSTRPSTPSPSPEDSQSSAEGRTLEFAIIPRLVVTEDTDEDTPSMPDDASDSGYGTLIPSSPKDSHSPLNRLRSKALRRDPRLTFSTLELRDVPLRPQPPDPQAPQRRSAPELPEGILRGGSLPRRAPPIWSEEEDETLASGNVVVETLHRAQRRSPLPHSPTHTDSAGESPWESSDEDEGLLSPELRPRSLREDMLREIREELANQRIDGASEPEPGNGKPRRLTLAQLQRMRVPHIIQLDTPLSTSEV
UniProt Q8R1F6: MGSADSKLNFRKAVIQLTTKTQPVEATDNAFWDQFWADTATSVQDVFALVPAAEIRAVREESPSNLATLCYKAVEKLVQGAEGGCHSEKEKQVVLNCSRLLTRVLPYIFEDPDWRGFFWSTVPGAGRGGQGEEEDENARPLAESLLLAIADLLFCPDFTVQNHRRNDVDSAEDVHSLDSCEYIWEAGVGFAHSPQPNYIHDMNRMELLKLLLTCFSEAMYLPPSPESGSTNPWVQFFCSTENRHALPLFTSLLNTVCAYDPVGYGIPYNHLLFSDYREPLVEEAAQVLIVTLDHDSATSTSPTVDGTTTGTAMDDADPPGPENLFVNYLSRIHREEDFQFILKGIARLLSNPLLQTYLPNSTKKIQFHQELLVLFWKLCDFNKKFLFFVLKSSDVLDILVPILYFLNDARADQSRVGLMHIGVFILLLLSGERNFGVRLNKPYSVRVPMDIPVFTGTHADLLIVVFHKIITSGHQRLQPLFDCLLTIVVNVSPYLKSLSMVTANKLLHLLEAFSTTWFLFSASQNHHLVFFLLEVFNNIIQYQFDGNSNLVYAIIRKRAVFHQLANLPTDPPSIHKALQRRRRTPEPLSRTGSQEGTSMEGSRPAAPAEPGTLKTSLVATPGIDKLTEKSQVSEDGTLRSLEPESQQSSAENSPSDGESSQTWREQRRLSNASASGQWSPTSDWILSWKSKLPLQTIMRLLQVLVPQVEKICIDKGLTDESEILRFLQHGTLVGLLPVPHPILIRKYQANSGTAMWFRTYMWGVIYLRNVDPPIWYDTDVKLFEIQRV
UniProt Q8R149: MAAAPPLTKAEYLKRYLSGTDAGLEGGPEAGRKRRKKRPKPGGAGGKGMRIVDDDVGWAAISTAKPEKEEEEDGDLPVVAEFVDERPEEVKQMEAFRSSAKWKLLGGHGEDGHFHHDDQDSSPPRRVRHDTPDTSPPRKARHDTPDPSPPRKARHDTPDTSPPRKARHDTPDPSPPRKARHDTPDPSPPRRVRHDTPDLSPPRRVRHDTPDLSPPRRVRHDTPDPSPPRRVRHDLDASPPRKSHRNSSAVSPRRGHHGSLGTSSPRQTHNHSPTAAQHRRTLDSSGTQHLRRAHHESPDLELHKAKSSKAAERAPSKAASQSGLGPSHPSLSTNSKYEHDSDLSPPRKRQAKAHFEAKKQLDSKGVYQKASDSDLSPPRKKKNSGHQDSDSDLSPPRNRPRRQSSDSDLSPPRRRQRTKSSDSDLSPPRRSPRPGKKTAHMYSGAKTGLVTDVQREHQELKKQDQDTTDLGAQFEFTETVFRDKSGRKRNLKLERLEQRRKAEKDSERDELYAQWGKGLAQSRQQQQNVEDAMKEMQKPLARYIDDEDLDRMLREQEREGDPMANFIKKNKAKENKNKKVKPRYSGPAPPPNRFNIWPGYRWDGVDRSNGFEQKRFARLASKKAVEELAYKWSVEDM
UniProt Q8R1R3: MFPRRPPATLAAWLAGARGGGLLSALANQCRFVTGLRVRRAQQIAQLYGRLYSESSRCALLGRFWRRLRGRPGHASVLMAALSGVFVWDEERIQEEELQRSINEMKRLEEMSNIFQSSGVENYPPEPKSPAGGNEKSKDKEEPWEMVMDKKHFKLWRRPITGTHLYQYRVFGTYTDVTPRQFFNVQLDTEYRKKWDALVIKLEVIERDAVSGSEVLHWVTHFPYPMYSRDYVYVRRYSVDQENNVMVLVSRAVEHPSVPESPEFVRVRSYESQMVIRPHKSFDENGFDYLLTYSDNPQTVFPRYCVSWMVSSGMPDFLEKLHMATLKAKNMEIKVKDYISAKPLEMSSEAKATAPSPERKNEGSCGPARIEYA
UniProt Q8K1T1: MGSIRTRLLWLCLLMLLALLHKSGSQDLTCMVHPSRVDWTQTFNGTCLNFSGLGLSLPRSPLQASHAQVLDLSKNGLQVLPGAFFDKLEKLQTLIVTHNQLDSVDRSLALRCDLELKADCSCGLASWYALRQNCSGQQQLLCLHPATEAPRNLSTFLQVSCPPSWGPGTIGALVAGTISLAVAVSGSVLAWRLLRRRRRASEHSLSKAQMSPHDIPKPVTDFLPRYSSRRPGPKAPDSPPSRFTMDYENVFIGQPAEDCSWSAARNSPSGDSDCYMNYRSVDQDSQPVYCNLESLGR

Row | Target | log2 fold change
1 | UniProt Q8K2Y9 (peptide sequence: TEILHFIDKAK, peptide start residue: 86) | -0.499
2 | UniProt Q8R0A0 (peptide sequence: VVTTNYKPVANHQYNIEYER, peptide start residue: 148) | 0.23
3 | UniProt Q8R015 (peptide sequence: AEVDEEHR, peptide start residue: 155) | -0.485
4 | UniProt Q8K1B8 (peptide sequence: QYWVVFK, peptide start residue: 371) | 0.178
5 | UniProt Q8K124 (peptide sequence: ELVTLYR, peptide start residue: 485) | 0.12
6 | UniProt Q8R2K7 (peptide sequence: AALHDQLNR, peptide start residue: 20) | -0.12
7 | UniProt Q8R0P4 (peptide sequence: VQGSTLTYK, peptide start residue: 16) | 0.3
8 | UniProt Q8K2Z2 (peptide sequence: KAENGSEEPEEKK, peptide start residue: 605) | -1.04
9 | UniProt Q8K202 (peptide sequence: HFVGILNK, peptide start residue: 102) | 0.311
10 | UniProt Q8R079 (peptide sequence: EKWEGFPK, peptide start residue: 75) | -0.348
11 | UniProt Q8K3H0 (peptide sequence: TGLVSSTWDR, peptide start residue: 290) | -0.191
12 | UniProt Q8R1J9 (peptide sequence: AVMDNPQHGFWR, peptide start residue: 234) | 0.11
13 | UniProt Q8R0J1 (peptide sequence: LPPEDRR, peptide start residue: 121) | -0.224
14 | UniProt Q8R216 (peptide sequence: EQKLPIAILNIGPTR, peptide start residue: 274) | 0.129
15 | UniProt Q8K2V1 (peptide sequence: YLADQNNQVR, peptide start residue: 139) | 0.169
16 | UniProt Q8QZR5 (peptide sequence: ECIEAVIR, peptide start residue: 253) | -0.483
17 | UniProt Q8R0K9 (peptide sequence: GVGPGCNTR, peptide start residue: 83) | 0.257
18 | UniProt Q8R121 (peptide sequence: KMEVFFPK, peptide start residue: 336) | -0.161
19 | UniProt Q8K214 (peptide sequence: ILIPHPTSTPSK, peptide start residue: 286) | 0.152
20 | UniProt Q8R001 (peptide sequence: SHHANSPTAGAAK, peptide start residue: 194) | 0.599
21 | UniProt Q8R1F6 (peptide sequence: TSLVATPGIDKLTEK, peptide start residue: 615) | 0.164
22 | UniProt Q8R149 (peptide sequence: QTHNHSPTAAQHR, peptide start residue: 267) | -0.82
23 | UniProt Q8K4G2 (peptide sequence: PGLPGPK, peptide start residue: 145) | 0.351
24 | UniProt Q8R1R3 (peptide sequence: QFFNVQLDTEYRK, peptide start residue: 181) | -0.822
25 | UniProt Q8K1T1 (peptide sequence: AQMSPHDIPKPVTDFLPR, peptide start residue: 208) | -0.277

Reprinted: nos. 21 to 22
Row | Target | log2 fold change
21 | UniProt Q8R1F6 (peptide sequence: TSLVATPGIDKLTEK, peptide start residue: 615) | 0.164
22 | UniProt Q8R149 (peptide sequence: QTHNHSPTAAQHR, peptide start residue: 267) | -0.82
